These are yes or no findings as the source states them, for the method shown.
Legend:
[1] = target: AcrA^S (soluble AcrA lacking signal peptide and lipidation) (E. coli) (UniProt P0AE06); experiment: native MS; pH 7.4, 100 mM ammonium acetate; AcrA^L with 0.03% DDM; both purified
[2] = target: AcrA^S (soluble AcrA lacking signal peptide and lipidation) (E. coli) (UniProt P0AE06); experiment: native MS; pH 6.0, 100 mM ammonium acetate; AcrA^L with 0.03% DDM (2x CMC); Synapt G2-Si or Q-Exactive UHMR; both purified

With “AcrA^S (soluble AcrA lacking signal peptide and lipidation) (from UniProt P0AE06 25-397) (domain or fragment)” the binding [1] was “no binding” and the binding [2] was “no binding”.

Source: publication PMC10354078, “Conformational restriction shapes the inhibition of a multidrug efflux adaptor protein” (Nature Communications, 2023)
